{"source": "patent US8609667B2", "about": "“E-type phenyl acrylic ester compounds containing substituted anilino pyrimidine group and uses thereof” (Sinochem Corporation, priority 2009, dated 2013)", "key": {"[1]": {"test_system": "adults of Tetranychus cinnabarinus", "test": "Acaricidal activity against adults in greenhouse (spray on broadbean shoots, mortality after 72 hrs)", "assay_type": "in vivo", "procedure": "(§1) The activity determinations of compounds of the present invention against adults, nymphs and eggs of Tetranychus cinnabarinus were carried out in greenhouse by the following procedures:\nThe activity determination against adults in greenhouse: the compounds were weighed and dissolved in acetone to obtain mother liquid, and then the mother liquid was diluted to required concentration with placed running water containing 0.1% of Tween 80. Broadbean shoots with two true leaves were used to inoculate adults of Tetranychus cinnabarinus which were counted, spraying treatment was performed by portable sprayer (DeVilbiss Atomizer M163), 3 replicates were set for each treatment. After treatment the broadbean shoots were maintained in standard observation room. Scores were conducted and mortalities were calculated after 72 hrs."}, "[2]": {"test_system": "nymphs of Tetranychus cinnabarinus", "test": "Acaricidal activity against nymphs in greenhouse (spray, mortality after 72 hrs)", "assay_type": "in vivo", "conditions": "dose 0.16 mg/L", "procedure": "as §1\nThe activity determination against nymphs in greenhouse: broadbean shoots with two true leaves in pot were taken, ten healthy female adults of Tetranychus cinnabarinus were inoculated to the leaves, the adults were removed after 24 hrs and the eggs were cultivated into nymphs after 7-10 days. The nymphs were counted and then sprayed. 3 replicates were set for each treatment. And then were maintained in standard observation room. Scores were conducted and mortalities were calculated after 72 hrs."}}, "note": "Some entries share one result that the patent states for a list of compounds."}
{"smiles": "CO/C=C(/C(=O)OC)c1ccccc1COc1cc(C(F)(F)F)nc(Nc2ccc(Cl)cc2Cl)n1", "note": "[Compound 9]", "values": [{"measurement": "control against adults of Tetranychus cinnabarinus", "setting": "[1]; dose 0.625 mg/L", "result": "more than 85%"}, {"measurement": "control against nymphs of Tetranychus cinnabarinus", "setting": "[2]", "result": "more than 60%"}]}
{"smiles": "CO/C=C(/C(=O)OC)c1ccccc1COc1cc(C(F)(F)F)nc(Nc2ccc(F)c(Cl)c2)n1", "note": "[Compound 13]", "values": [{"measurement": "control against adults of Tetranychus cinnabarinus", "setting": "[1]; dose 10 mg/L", "result": "more than 80%"}, {"measurement": "control against adults of Tetranychus cinnabarinus", "setting": "[1]; dose 40 mg/L", "result": "more than 95%"}]}
{"smiles": "CO/C=C(/C(=O)OC)c1ccccc1COc1nc(Nc2ccc(F)c(F)c2F)nc(C(F)(F)F)c1C", "note": "[Compound 80]", "values": [{"measurement": "control against adults of Tetranychus cinnabarinus", "setting": "[1]; dose 10 mg/L", "result": "more than 80%"}]}
{"smiles": "CO/C=C(/C(=O)OC)c1ccccc1COc1nc(Nc2ccccc2Cl)nc(C(F)(F)F)c1C", "note": "[Compound 82]", "values": [{"measurement": "control against adults of Tetranychus cinnabarinus", "setting": "[1]; dose 10 mg/L", "result": "more than 80%"}, {"measurement": "control against adults of Tetranychus cinnabarinus", "setting": "[1]; dose 40 mg/L", "result": "more than 95%"}]}
{"smiles": "CO/C=C(/C(=O)OC)c1ccccc1COc1nc(Nc2ccccc2)nc(C(F)(F)F)c1C", "note": "[Compound 84]", "values": [{"measurement": "control against adults of Tetranychus cinnabarinus", "setting": "[1]; dose 10 mg/L", "result": "more than 80%"}, {"measurement": "control against adults of Tetranychus cinnabarinus", "setting": "[1]; dose 40 mg/L", "result": "more than 95%"}]}
